Measurements: the supplement of paper PMC7877785
± gives the uncertainty stated by the source. The uncertainty is large for many entries.

Assay: self-splicing fitness, log relative to wild type (ln ratio); higher = more splicing; Tetrahymena group I intron in knt gene, E. coli kanamycin selection, DiMSum; sequences stand for … in CUCUCU…GGAGGGAAAAGUUAUCAGGCAUGCACCUGGUAGCUAGUCUUUAAACCAAUAGAUUGCAUCGGUUUAAAAGGCAAGACCGUCAAAUUGCGGGAAAGGGGUCAACAGCCGUUCAGUACCAAGUCUCAGGGGAAACUUUGAGAUGGCCUUGCAAAGGGUAUGGUAAUAAGCUGACGGACAUGGUCCUAACCACGCAGCCAAGUCCUAAGUCAACAGAUCUUCUGUUGAUAUGGAUGCAGUUCACAGACUAAAUGUCGGUCGGGGAAGAUGUAUUCUUCUCAUAAGAUAUAGUCGGACCUCUCCUUAAUGGGAGCUAGCGGAUGAAGUGAUGCAACACUGGAGCCGCUGGGAACUAAUUUGUAUGCGAAAGUAUAUUGAUUAGUUUUGGAGUACUCGUGGUCG
Summary of the method: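 Six replicate transformations of E. coli BL21(DE3) with a pET-22b(+) library were grown overnight at 37°C or 30°C. The library randomised all eight P1ex-region intron nucleotides, the intron lying in the knt kanamycin-resistance gene, and plates were LB agar with or without 25 μg/mL kanamycin plus 100 μg/mL carbenicillin, 50 μM IPTG and 0.2% rhamnose. Pooled colonies were amplicon-sequenced on an Illumina HiSeq 2500, and fitness is the DiMSum error-weighted combination of wild-type-normalised replicate fold changes, kanamycin versus none.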

Row | Sequence | self-splicing fitness (ln) (30 °C) | self-splicing fitness (ln) (37 °C)
1 | AAAAAGCAAUAUUACGAAGC | -3.18 ± 0.52 | –
2 | GCUUAGCAAUAUUACGUUGU | -1.5 ± 0.066 | -0.844 ± 0.093
3 | CUCCAGCAAUAUUACGCCAA | -2.65 ± 0.54 | –
4 | CCAGAGCAAUAUUACGGACA | – | -1.22 ± 0.6
5 | UUCGAGCAAUAUUACGAGUA | -1.57 ± 0.15 | -1.43 ± 0.18
6 | GCAAAGCAAUAUUACGGAGA | – | -2.49 ± 0.76
7 | GAGGAGCAAUAUUACGGAGC | -3.31 ± 1 | –
8 | AUGCAGCAAUAUUACGAUAC | – | -2.58 ± 0.62
9 | AACCAGCAAUAUUACGUCCU | 0.026 ± 0.043 | -0.134 ± 0.053
10 | UUUUAGCAAUAUUACGUAUC | -4.22 ± 0.6 | –
11 | AAUGAGCAAUAUUACGCUUC | -5.23 ± 0.58 | –
12 | GGCGAGCAAUAUUACGAUGG | – | 0.254 ± 0.71
13 | UGUUAGCAAUAUUACGGGGU | – | -3.49 ± 0.52
14 | CUAGAGCAAUAUUACGUACA | -2.59 ± 0.36 | -1.64 ± 0.32
15 | CGAAAGCAAUAUUACGAUUC | -4.39 ± 0.59 | –
16 | CCUGAGCAAUAUUACGUCUU | -4.31 ± 0.51 | –
17 | GCUGAGCAAUAUUACGAAGG | -3.74 ± 0.6 | –
18 | UCCAAGCAAUAUUACGUCAC | -3.72 ± 0.39 | -3.28 ± 0.43
19 | GUGGAGCAAUAUUACGAGGU | -4.44 ± 1 | -2.24 ± 0.69
20 | AAGGAGCAAUAUUACGCUAC | – | -1.74 ± 0.65
21 | UUGAAGCAAUAUUACGAGUA | -1.83 ± 0.077 | -0.59 ± 0.085
22 | CCGGAGCAAUAUUACGCAUC | – | -1.37 ± 0.68
23 | AGGGAGCAAUAUUACGUAAU | -3.64 ± 0.53 | –
24 | ACGCAGCAAUAUUACGAAUA | -4.2 ± 1 | –

Row | Sequence | self-splicing fitness (ln) (30 °C) | self-splicing fitness (ln) (37 °C)
25 | UUAGAGCAAUAUUACGACCA | – | -1.22 ± 0.71
26 | UCGUAGCAAUAUUACGGGAC | -4.57 ± 1 | –
27 | ACAUAGCAAUAUUACGUCUC | -4.39 ± 0.51 | –
28 | GCAUAGCAAUAUUACGGGUC | -3.17 ± 0.14 | -2.71 ± 0.17
29 | UCAUAGCAAUAUUACGACCC | -1.69 ± 0.76 | -2.72 ± 1.1
30 | CCACAGCAAUAUUACGAACA | -2.78 ± 0.24 | -2.33 ± 0.29
31 | CGCUAGCAAUAUUACGUGAC | -5.2 ± 1 | –
32 | CUCGAGCAAUAUUACGCGCA | – | -2.16 ± 1.1
33 | UUGUAGCAAUAUUACGCCGU | -1.96 ± 0.71 | -1.67 ± 0.68
34 | GAGGAGCAAUAUUACGUUUC | – | -1.98 ± 1.1
35 | UCCAAGCAAUAUUACGACAA | -2.14 ± 0.13 | -1.47 ± 0.1
36 | AGGCAGCAAUAUUACGUCCC | -0.81 ± 0.54 | –
37 | GGAGAGCAAUAUUACGACUG | -4.1 ± 0.51 | –
38 | UGAAAGCAAUAUUACGGGUC | -4.12 ± 1 | –
39 | ACGGAGCAAUAUUACGCGAU | -4.44 ± 0.72 | –
40 | AGGCAGCAAUAUUACGGCUG | – | -2.51 ± 0.75
41 | GCCGAGCAAUAUUACGCGGC | -5.2 ± 0.51 | –
42 | UGUGAGCAAUAUUACGCGCG | – | -2.55 ± 0.62
43 | CUAGAGCAAUAUUACGGCGC | – | -1.38 ± 0.51
44 | AAUGAGCAAUAUUACGAAGU | -4.04 ± 1.1 | –
45 | CUCUAGCAAUAUUACGAACC | – | -3.09 ± 1
46 | GUAGAGCAAUAUUACGUAGU | -4.26 ± 0.59 | –
47 | CGAGAGCAAUAUUACGCCGA | – | -1.16 ± 0.74
48 | AUAUAGCAAUAUUACGGCCU | -0.457 ± 0.22 | -1.58 ± 0.39

At a glance, some entries already given:
Row | Sequence | self-splicing fitness (ln) (30 °C) | self-splicing fitness (ln) (37 °C)
37 | GGAGAGCAAUAUUACGACUG | -4.1 ± 0.51 | –
38 | UGAAAGCAAUAUUACGGGUC | -4.12 ± 1 | –
39 | ACGGAGCAAUAUUACGCGAU | -4.44 ± 0.72 | –

Following part

Row | Sequence | self-splicing fitness (ln) (30 °C) | self-splicing fitness (ln) (37 °C)
49 | GUAGAGCAAUAUUACGGAUA | -3.22 ± 0.61 | –
50 | UUGGAGCAAUAUUACGAUCC | -3.16 ± 1 | –
51 | UAACAGCAAUAUUACGCCGC | -3.08 ± 0.64 | -3.25 ± 1
52 | UUGAAGCAAUAUUACGAGCG | -0.107 ± 0.089 | 0.65 ± 0.14
53 | AAGUAGCAAUAUUACGAGAG | -3.09 ± 0.22 | -1.05 ± 0.21
54 | UAGAAGCAAUAUUACGAGGU | -5.34 ± 0.71 | –
55 | UAAUAGCAAUAUUACGAAUC | -4.21 ± 0.31 | -2.34 ± 0.39
56 | AGGAAGCAAUAUUACGGAAG | -2.98 ± 0.25 | -2.28 ± 0.39
57 | ACUUAGCAAUAUUACGUAUC | -3.56 ± 0.22 | -2.37 ± 0.24
58 | GCCGAGCAAUAUUACGGCUC | -3.39 ± 1 | –
59 | UGAUAGCAAUAUUACGGUAA | -3.54 ± 0.62 | –
60 | GAUGAGCAAUAUUACGACUG | – | -1.88 ± 0.8
61 | AUGGAGCAAUAUUACGCCAG | – | -1.86 ± 0.69
62 | GGGAAGCAAUAUUACGAUAG | – | -3.25 ± 0.74
63 | UUGGAGCAAUAUUACGCCGU | -3.82 ± 1 | -0.699 ± 0.61
64 | CUUGAGCAAUAUUACGUCGA | – | -2.45 ± 0.63
65 | UCCGAGCAAUAUUACGCUCC | – | -1.47 ± 1.2
66 | GCGGAGCAAUAUUACGUUCU | -4.04 ± 1 | -1.35 ± 0.55
67 | GCUUAGCAAUAUUACGGGGC | -3.39 ± 0.74 | –
68 | CUGGAGCAAUAUUACGCCGG | -2.94 ± 0.58 | -1.72 ± 0.57
69 | GUCGAGCAAUAUUACGGAUA | 0.0717 ± 0.66 | –
70 | UGGGAGCAAUAUUACGAUUG | -3.51 ± 0.53 | –
71 | GUCAAGCAAUAUUACGACCA | -3.2 ± 0.67 | -2.27 ± 0.55
72 | GGUAAGCAAUAUUACGAGCC | -4.94 ± 1 | –

Row | Sequence | self-splicing fitness (ln) (30 °C) | self-splicing fitness (ln) (37 °C)
73 | AACAAGCAAUAUUACGGUCC | -1.36 ± 0.063 | -0.282 ± 0.072
74 | UCAGAGCAAUAUUACGAUUC | -4.48 ± 0.51 | –
75 | GUUGAGCAAUAUUACGAAGG | -3.35 ± 0.41 | -2.68 ± 0.4
76 | GGGGAGCAAUAUUACGAAUC | – | 1.62 ± 0.74
77 | UGAGAGCAAUAUUACGUUUC | -3.93 ± 0.51 | -2.32 ± 0.56
78 | AGUGAGCAAUAUUACGCCCU | 0.511 ± 0.55 | 0.635 ± 0.61
79 | UAAGAGCAAUAUUACGCUUU | -2.81 ± 0.18 | -1.85 ± 0.31
80 | AUCUAGCAAUAUUACGAGGA | -2.83 ± 0.32 | -2.01 ± 0.21
81 | GUCAAGCAAUAUUACGUAUU | -2.98 ± 0.12 | -1.84 ± 0.1
82 | CUUAAGCAAUAUUACGCCUU | -4.02 ± 0.59 | –
83 | AUUGAGCAAUAUUACGCCCG | – | -2.22 ± 0.63
84 | GACGAGCAAUAUUACGGAUU | -4.02 ± 0.51 | –
85 | CUCAAGCAAUAUUACGGUAC | -3.9 ± 0.72 | –
86 | GGUUAGCAAUAUUACGAUCC | – | -0.924 ± 0.66
87 | CCUUAGCAAUAUUACGCCUG | -4.11 ± 0.51 | –
88 | CCUUAGCAAUAUUACGAAAC | -2.8 ± 0.59 | -2.14 ± 0.61
89 | AAACAGCAAUAUUACGAAGG | -3.85 ± 0.13 | -2.2 ± 0.15
90 | CAUUAGCAAUAUUACGUGUC | -4.73 ± 1 | –
91 | AAAGAGCAAUAUUACGGACG | -2.59 ± 0.58 | -1.65 ± 0.53
92 | GAAGAGCAAUAUUACGUAGG | -3.14 ± 0.33 | -1.99 ± 0.19
93 | GUCCAGCAAUAUUACGGCUA | -0.25 ± 0.068 | 0.143 ± 0.073
94 | AUUGAGCAAUAUUACGCUCA | -2.93 ± 0.78 | –
95 | UCGAAGCAAUAUUACGUACC | -3.03 ± 0.77 | -3.34 ± 0.76
96 | GGAAAGCAAUAUUACGAAAA | – | -2.72 ± 0.53

Single records, as listed above:
CUCAAGCAAUAUUACGGUAC is listed as self-splicing fitness (ln) (30 °C): -3.9 ± 0.72
GUCAAGCAAUAUUACGUAUU is listed as self-splicing fitness (ln) (30 °C): -2.98 ± 0.12; self-splicing fitness (ln) (37 °C): -1.84 ± 0.1

(listing goes on)

Row | Sequence | self-splicing fitness (ln) (30 °C) | self-splicing fitness (ln) (37 °C)
97 | GUGGAGCAAUAUUACGGCGG | -3.32 ± 0.29 | -1.54 ± 0.27
98 | CGUGAGCAAUAUUACGGCCG | – | -0.484 ± 0.66
99 | GCGCAGCAAUAUUACGACCU | 0.0686 ± 0.071 | 0.0313 ± 0.084
100 | GUCCAGCAAUAUUACGUGAA | 0.0486 ± 0.079 | 0.617 ± 0.098
101 | AGCCAGCAAUAUUACGUCAC | -3.72 ± 0.73 | –
102 | UAAGAGCAAUAUUACGCCAC | -2.07 ± 0.22 | -1.59 ± 0.29
103 | GCCGAGCAAUAUUACGCCCG | -2.68 ± 0.26 | -2.41 ± 0.56
104 | AACAAGCAAUAUUACGAAUC | -3.22 ± 0.17 | -2.24 ± 0.13
105 | UUGUAGCAAUAUUACGAAGA | – | -3.17 ± 0.6
106 | GGGGAGCAAUAUUACGGAAC | -4.05 ± 1 | –
107 | CGCGAGCAAUAUUACGAAGA | -3.34 ± 0.54 | –
108 | GGAGAGCAAUAUUACGCAGU | -2.57 ± 0.69 | -1.92 ± 0.57
109 | GGUGAGCAAUAUUACGGUAA | -3.66 ± 0.75 | –
110 | UCGGAGCAAUAUUACGUCCG | -3.21 ± 1.1 | -2.13 ± 0.81
111 | GUAUAGCAAUAUUACGAAUA | -1.55 ± 1.2 | -1.08 ± 0.93
112 | UAUGAGCAAUAUUACGGAGG | -3.2 ± 0.17 | -2.53 ± 0.29
113 | GGGGAGCAAUAUUACGGAAU | -3.58 ± 0.54 | –
114 | CAGGAGCAAUAUUACGUCCC | – | -1.33 ± 1.2
115 | CGGAAGCAAUAUUACGCUCU | -3.78 ± 0.53 | –
116 | GAUUAGCAAUAUUACGCCUC | -0.628 ± 0.52 | -0.638 ± 0.87
117 | CUAGAGCAAUAUUACGUAUC | -4.44 ± 0.73 | –
118 | UAAGAGCAAUAUUACGCAGU | -3.51 ± 0.6 | –
119 | UGGUAGCAAUAUUACGAAAG | -3.06 ± 0.26 | -3.47 ± 0.73
